The results are deposited in PubChem (AID1080; Emory University Molecular Libraries Screening Center, 2008).

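A counter-screen in EP4-overexpressing cells measuring cyclic AMP with a time-resolved FRET kit under weak PGE2 stimulation. Compounds were tested at 20 µM final. A low (about EC15) PGE2 dose was present. Percent cAMP induction as a fraction of the 1 µM PGE2 response, averaged over three replicates; a higher value means more cAMP.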

Values are in %. Common to all entries: measured here: EP4 receptor counter-screen. Part of the compounds only, not a random draw; the main read-out is not listed here.

structure | condition | cAMP induction (%)
COc1ccc(S(=O)(=O)N(Cc2cccs2)C2CCCC2)cc1 | percent of 1 uM PGE2 response; plus low (about EC15) PGE2 agonist | 7.347
CCn1nnnc1SCC(=O)Nc1cccc(C)n1 | percent of 1 uM PGE2 response; plus low (about EC15) PGE2 agonist | 7.753
Cc1c(C(=O)Nc2cccc3cccnc23)oc2ccccc12 | percent of 1 uM PGE2 response; plus low (about EC15) PGE2 agonist | -3.563
Cc1sc2ncnc(Sc3ccccc3C(=O)O)c2c1C | percent of 1 uM PGE2 response; plus low (about EC15) PGE2 agonist | 59.92
CCOCC(=O)Nc1cc(C(F)(F)F)ccc1Oc1cccc(Br)c1 | percent of 1 uM PGE2 response; plus low (about EC15) PGE2 agonist | 8.033
O=C(CN1CCN(Cc2ccccc2)CC1)Nc1ccccc1-c1ccccc1 | percent of 1 uM PGE2 response; plus low (about EC15) PGE2 agonist | -13.83
CSc1nc(Sc2ccccc2)c2ccccc2n1 | percent of 1 uM PGE2 response; plus low (about EC15) PGE2 agonist | 25.95
CCOC(=O)CSc1nc(Cc2ccccc2)nc2ccccc12 | percent of 1 uM PGE2 response; plus low (about EC15) PGE2 agonist | 2.04
O=C(Cc1ccc(F)cc1)Nc1ccccc1Sc1ccccc1 | percent of 1 uM PGE2 response; plus low (about EC15) PGE2 agonist | 2.327
Cc1sc(NC(=O)CN2CCOCC2)c(C(=O)c2ccccc2)c1C | percent of 1 uM PGE2 response; plus low (about EC15) PGE2 agonist | 5.073
O=C(CSc1nnc(COc2ccccc2)n1-c1ccccc1)c1ccccc1 | percent of 1 uM PGE2 response; plus low (about EC15) PGE2 agonist | -15.46
O=C(NCCC1=CCCCC1)c1cccc2c1C(=O)N(C1CCCCC1)C2 | percent of 1 uM PGE2 response; plus low (about EC15) PGE2 agonist | 4.633
COc1ccc(CCN(Cc2nc(-c3ccccc3)no2)Cc2nc(-c3ccccc3)no2)cc1OC | percent of 1 uM PGE2 response; plus low (about EC15) PGE2 agonist | -0.9033
COc1ccccc1-c1nnc2sc(-c3cc4ccccc4o3)nn12 | percent of 1 uM PGE2 response; plus low (about EC15) PGE2 agonist | 5.737
COc1cccc2[nH]c3c(N4CCC(C)CC4)ncnc3c12 | percent of 1 uM PGE2 response; plus low (about EC15) PGE2 agonist | -12.89
CC(Sc1nc2ccccc2n1C)C(=O)NC(c1ccccc1)c1ccccc1 (centres undefined) | percent of 1 uM PGE2 response; plus low (about EC15) PGE2 agonist | -14.43
CCOC(=O)c1ccccc1NC(=O)CSc1ncc(C(=O)OCC)c(N)n1 | percent of 1 uM PGE2 response; plus low (about EC15) PGE2 agonist | 0.5867
CCOC(=O)c1c(-c2ccc(-c3ccccc3)cc2)csc1NC(=O)CCN1CCOCC1 | percent of 1 uM PGE2 response; plus low (about EC15) PGE2 agonist | -18.2